Laboratory results reported in the supplement of paper PMC10338343.
± gives the standard deviation. The entries are a selection whose mix differs from that of the whole data set. Many of these values have a large error.

What follows are sequences tested on MIWI (PIWIL1) piRISC loaded with piRNA #1 (30 nt) (assay: pre-steady-state target cleavage rate (min^-1); higher = faster piRNA-guided slicing of the target). Conditions: guide: piRNA #1 5'p-UGAGGUAGUAGGUUGUAUAGUAUCCAGAGG; auxiliary factor: 500 nM mouse GTSF1.
Summary of the method: (§1)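 Using HEPES–potassium acetate buffer at 33 °C, 1 nM active affinity-purified piRISC with a single synthetic guide was mixed with 0.1 nM transcribed, DNA-blocked target RNA library for 0–8 or 0–960 min, with or without 500 nM GTSF1 partner protein. Uncleaved targets were sequenced and normalised to depth and to weakly complementary targets, and three trials were pooled with k3 capped at 0.0001 min^-1. A burst-and-steady-state fit gave the pre-steady-state cleavage rate.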

| Sequence | pre-steady-state target cleavage rate |
| --- | --- |
| GGAGACCUAUGAAUACAAGGUACUACCUCA | 0.000201 ± 0.013 |
| GGAGACCUAUGAAUACAACGUACUACCUGA | 0.000359 ± 0.0053 |
| GGAGUGGAUACUAAACAACCUACUUCCUCA | 0.0286 ± 0.0079 |
| GGAGACCUAUGAAUACAACCUACUACCACA | 0.000978 ± 0.0053 |
| GGAGACCUAUGAUAUGUUCCGUACUACCUCA | 0.00084 ± 0.0059 |
| GGAGACCUAUGUAUACUAGCUACUACCUCA | 0.00105 ± 0.0071 |
| GGAGACCUAUGUAAACAACCUACUACGUCA | 0.0027 ± 0.0033 |
| GGAGACCUAUGAUUACUACCUACUAGCUCA | 0.000178 ± 0.019 |
| GGAGACCUAUGAAUACAACGUACUAGCUCA | 0.000464 ± 0.0089 |
| GGAGACCUAUGUAAACAACCUACUUCCUCA | 0.000892 ± 0.0053 |
| GGAGACCUAUGAUAUGUUGCUACUACGCUCA | 0.000845 ± 0.0075 |
| GGAGACCUAUGAUAUGUACCUAGUACCUCA | 0.000252 ± 0.01 |
| GGAGACCUAUGAAUACAACCUACUACCUCCA | 0.00185 ± 0.004 |
| GGAGACCUAUGUUUACAACCUACAACCUCA | 0.00129 ± 0.003 |
| GGAGACCUAUGAUAUGUUGCUACUACUUCA | 0.00178 ± 0.0047 |
| GGAGACCUAUGAUUAUCAACCUACUACCUCA | 0.00146 ± 0.0025 |
| GGAGACCUAUGAUAACAACGUACUACCUCA | 0.000662 ± 0.0038 |
| GGAGACCUAUGAUUACAAGCUAGUACCUCA | 0.00212 ± 0.0034 |
| GGAGAGGAUACAAUACAACCUACUACCUCA | 1.18 ± 0.063 |

These sequences were tested on EfPiwi piRISC loaded with piRNA #1 (26 nt) (assay: pre-steady-state target cleavage rate (min^-1); guide: piRNA #1 5'p-UGAGGUAGUAGGUUGUAUAGUAUCCA; MIWI and MILI are mouse PIWI proteins and EfPiwi is from a freshwater sponge; tags in brackets are library labels; higher = faster piRNA-guided slicing of the target). Conditions: auxiliary factor: 500 nM Ephydatia muelleri Gtsf1.
Summary of the method: as §1

| Sequence | pre-steady-state target cleavage rate |
| --- | --- |
| GGAGACCUAUGAAUACAAGGUACUACCUCA | 0.0013 ± 0.0074 |
| GGAGAGGAUACUAUACAAACCUACUACCUCA | 0.0671 ± 0.028 |
| GGAGACCUAUGAUAUGUACCUACUAGGUCA | 0.000465 ± 0.0095 |
| GGAGACCUAUGAAUACAACGUACUACCUGA | 0.0012 ± 0.0068 |
| GGAGACCUAACUAUACUACCUACUACGUCA | 0.00204 ± 0.0056 |
| GGAGUGGAUACUAAACAACCUACUUCCUCA | 0.00165 ± 0.002 |
| GGAGACCUUACUUUACAACCUACAACCUCA | 0.000388 ± 0.0063 |
| GGAGACCUUACUAUACAAGCUUCUACCUCA | 0.00239 ± 0.0025 |
| GGAGACCUAUGAAUACAACCUACUACCACA | 0.00105 ± 0.0086 |
| GGAGUGGAUACUUUACAACCUACUACCUGA | 0.00122 ± 0.0021 |
| GGAGACCUAUGUAUACCACCUACUACCUCA | 0.00155 ± 0.0053 |
| GGAGAGGAUAGAUUACAACCUACUACCUCA | 0.00319 ± 0.0051 |
| GGAGACCUAUCUAUUCAAGCUACUACCUCA | 0.00282 ± 0.0044 |
| GGAGACCAUACUAUACAAGCUACUACCUGA | 0.00543 ± 0.0026 |
| GGAGACCUAUGAUAUGUUCCGUACUACCUCA | 0.000711 ± 0.0081 |
| GGAGACCUAUGUAUACUAGCUACUACCUCA | 0.000405 ± 0.0054 |
| GGAGACCUAUGUAUACAACCUACUUCCUCA | 0.000581 ± 0.0051 |
| GGAGACCUAUGUAAACAACCUACUACGUCA | 0.000902 ± 0.0062 |
| GGAGACCUAUGAUUACUACCUACUAGCUCA | 0.000582 ± 0.0051 |
| GGAGACCUUACUAUACAACCAUCUACCUCA | 0.0026 ± 0.0037 |

| Sequence | pre-steady-state target cleavage rate |
| --- | --- |
| GGAGACCUAUCUAUACAACCGACUACCUCA | 0.00301 ± 0.0044 |
| GGAGUGGAUACUAUACAACCUACUUGGUCA | 0.00319 ± 0.0033 |
| GGAGACCUAUGAUAUGUUCCUACUACCUCA [g2:g12:cont:t1A] | 0.000846 ± 0.0053 |
| GGAGACCUAUGAAUACAACGUACUAGCUCA | 0.00135 ± 0.0062 |
| GGAGACCUAUGUAAACAACCUACUUCCUCA | 0.000239 ± 0.01 |
| GGAGACCUAUGAUAUGUUGCUACUACGCUCA | 0.000911 ± 0.0056 |
| GGAGACCUGACUAUACAACCUACUACCUCA | 0.0243 ± 0.01 |
| GGAGUGGAUUGUAUACAACCUACUACCUCA | 0.00594 ± 0.0037 |
| GGAGACCUAUCUAUACUACCUACUACCUGA | 0.00108 ± 0.0047 |
| GGAGACCUAUGUAACAACCUACUACCUCA | 0.0014 ± 0.0056 |
| GGAGACCUAUGAUAUGUACCUAGUACCUCA | 0.000197 ± 0.0099 |
| GGAGACCUAUGAAUACAACCUACUACCUCCA | 0.00197 ± 0.0038 |
| GGAGACCUAUGUUUACAACCUACAACCUCA | 0.000462 ± 0.0047 |
| GGAGACCUAUGAUAUGUUGCUACUACUUCA | 0.000703 ± 0.0056 |
| GGAGACCUAUGAUUAUCAACCUACUACCUCA | 0.000725 ± 0.01 |
| GGAGUGGAUACAAUACAACCUACUUCCUCA | 0.00231 ± 0.0024 |
| GGAGACCUAUGAUAACAACGUACUACCUCA | 0.000906 ± 0.007 |
| GGAGACCUAUGAUUACAAGCUAGUACCUCA | 0.000692 ± 0.0041 |
| GGAGACCUUACUAUACAACCUACUAGCUGA | 0.00236 ± 0.0044 |
| GGAGAGGAUACAAUACAACCUACUACCUCA | 0.0112 ± 0.005 |
